Measured values reported in PMC8143644.
No constants are given. Whether binding was seen depends on the method and setting. Binding seen in cells or lysates may run through a third protein. Binding calls can cover weak binding; strength is not graded here. Sequences can lack the tags named with a protein.

Chains of the proteins cited; added tags and fusions are not shown. Lines headed by an entry give the natural chain unless they say otherwise; changes in a name come on top.
UniProt Q9V3W7: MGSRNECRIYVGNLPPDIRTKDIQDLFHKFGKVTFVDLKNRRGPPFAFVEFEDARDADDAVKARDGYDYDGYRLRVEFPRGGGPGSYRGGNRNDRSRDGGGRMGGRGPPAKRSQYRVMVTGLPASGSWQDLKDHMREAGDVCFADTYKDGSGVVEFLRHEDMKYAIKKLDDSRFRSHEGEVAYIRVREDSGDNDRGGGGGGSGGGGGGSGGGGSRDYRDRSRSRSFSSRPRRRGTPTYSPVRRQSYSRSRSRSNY

Columns and labels:
Assay in all cases: co-IP; HEK293 cells co-transfected with bait and candidate (GFP-tagged bait with HA- or HA-Flag-tagged candidate, GFP-TRAP beads; or HA-Flag-tagged bait with GFP-tagged candidate, anti-Flag antibody); lysates treated with RNase A/T1; Western blot with anti-HA and anti-GFP
[1] = biological target: T1, Glo (tagged, expressed in HEK293 cells) (Drosophila melanogaster) (UniProt Q9VGH5)
T1 sequence: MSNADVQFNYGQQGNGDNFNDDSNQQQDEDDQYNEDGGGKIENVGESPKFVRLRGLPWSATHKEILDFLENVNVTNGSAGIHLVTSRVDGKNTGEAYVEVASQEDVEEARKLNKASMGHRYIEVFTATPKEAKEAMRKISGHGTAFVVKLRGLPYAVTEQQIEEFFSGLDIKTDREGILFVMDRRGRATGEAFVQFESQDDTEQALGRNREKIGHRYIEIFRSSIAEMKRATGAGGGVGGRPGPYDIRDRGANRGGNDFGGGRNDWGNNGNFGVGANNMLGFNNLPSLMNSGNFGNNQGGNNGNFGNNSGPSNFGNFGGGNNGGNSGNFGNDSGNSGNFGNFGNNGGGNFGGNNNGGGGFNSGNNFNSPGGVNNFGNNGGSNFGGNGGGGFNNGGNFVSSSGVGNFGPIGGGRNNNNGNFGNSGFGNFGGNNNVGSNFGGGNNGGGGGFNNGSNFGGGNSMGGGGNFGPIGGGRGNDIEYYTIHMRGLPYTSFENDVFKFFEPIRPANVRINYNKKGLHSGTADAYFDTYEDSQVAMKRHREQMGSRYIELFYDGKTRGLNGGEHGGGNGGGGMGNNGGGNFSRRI

[2] = biological target: T2, Hrp48 (tagged, expressed in HEK293 cells) (Drosophila melanogaster) (UniProt P48809)
T2 sequence: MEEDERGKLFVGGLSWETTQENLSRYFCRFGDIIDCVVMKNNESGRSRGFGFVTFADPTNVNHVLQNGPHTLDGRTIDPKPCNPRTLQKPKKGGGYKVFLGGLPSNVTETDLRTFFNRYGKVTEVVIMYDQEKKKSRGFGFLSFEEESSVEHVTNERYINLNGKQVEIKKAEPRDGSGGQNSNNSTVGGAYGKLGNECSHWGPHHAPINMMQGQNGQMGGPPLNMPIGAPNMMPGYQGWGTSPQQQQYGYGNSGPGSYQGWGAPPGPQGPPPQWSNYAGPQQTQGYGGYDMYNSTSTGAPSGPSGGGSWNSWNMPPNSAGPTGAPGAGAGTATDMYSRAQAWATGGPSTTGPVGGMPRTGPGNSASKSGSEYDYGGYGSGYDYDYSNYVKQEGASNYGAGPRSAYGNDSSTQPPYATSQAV

[3] = biological target: T3, Stau (tagged, expressed in HEK293 cells) (Drosophila melanogaster) (UniProt P25159)
T3 sequence: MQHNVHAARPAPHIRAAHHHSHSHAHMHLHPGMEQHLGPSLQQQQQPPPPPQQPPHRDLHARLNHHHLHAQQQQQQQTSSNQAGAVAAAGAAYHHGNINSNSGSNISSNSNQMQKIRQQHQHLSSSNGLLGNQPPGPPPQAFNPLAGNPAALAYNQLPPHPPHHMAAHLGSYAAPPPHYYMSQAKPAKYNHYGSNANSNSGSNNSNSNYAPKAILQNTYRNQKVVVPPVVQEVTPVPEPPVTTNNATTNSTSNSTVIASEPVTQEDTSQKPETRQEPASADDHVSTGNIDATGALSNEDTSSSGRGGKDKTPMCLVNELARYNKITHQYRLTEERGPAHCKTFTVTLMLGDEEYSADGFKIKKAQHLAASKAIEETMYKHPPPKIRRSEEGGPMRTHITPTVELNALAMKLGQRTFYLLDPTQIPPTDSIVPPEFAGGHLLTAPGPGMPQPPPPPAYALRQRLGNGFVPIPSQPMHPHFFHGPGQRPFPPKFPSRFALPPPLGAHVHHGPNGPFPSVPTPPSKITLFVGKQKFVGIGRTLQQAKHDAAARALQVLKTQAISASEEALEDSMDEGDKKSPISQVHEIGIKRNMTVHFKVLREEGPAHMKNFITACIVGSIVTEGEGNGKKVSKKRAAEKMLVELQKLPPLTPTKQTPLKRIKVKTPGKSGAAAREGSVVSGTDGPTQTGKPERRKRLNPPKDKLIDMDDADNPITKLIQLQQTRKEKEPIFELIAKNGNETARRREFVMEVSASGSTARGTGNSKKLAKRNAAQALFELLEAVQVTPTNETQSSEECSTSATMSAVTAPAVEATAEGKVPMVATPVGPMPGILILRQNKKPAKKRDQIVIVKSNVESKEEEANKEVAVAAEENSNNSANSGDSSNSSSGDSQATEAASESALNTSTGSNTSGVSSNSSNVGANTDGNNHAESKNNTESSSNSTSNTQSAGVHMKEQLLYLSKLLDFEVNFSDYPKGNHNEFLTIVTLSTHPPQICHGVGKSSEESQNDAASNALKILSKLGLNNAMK

Substance | binding [1] | binding [2] | binding [3]
CG10077 (tagged, expressed in HEK293 cells) (Drosophila melanogaster) | binds | – | –
Mahe (tagged, expressed in HEK293 cells) (Drosophila melanogaster) | binds | binds | –
SC35 (tagged, expressed in HEK293 cells) (Drosophila melanogaster) | binds | – | binds
SF2 (tagged, expressed in HEK293 cells) (from UniProt Q9V3W7) | binds | – | binds
